Data from publication PMC6802120, “Concatenation of 14-3-3 with partner phosphoproteins as a tool to study their interaction” (Scientific Reports, 2019).
Results are given in words; binding and its absence hold for the method and conditions named.

Target: T1, pCH1 (phosphorylated peptidic chimera of 14-3-3σ(clu3)∆C with the HSPB6 phosphopeptide, residues 12-19) (human) (UniProt P31947)
T1 sequence (chain, phosphoserine at Ser16 of the HSPB6 peptide (phosphorylated by PKA)): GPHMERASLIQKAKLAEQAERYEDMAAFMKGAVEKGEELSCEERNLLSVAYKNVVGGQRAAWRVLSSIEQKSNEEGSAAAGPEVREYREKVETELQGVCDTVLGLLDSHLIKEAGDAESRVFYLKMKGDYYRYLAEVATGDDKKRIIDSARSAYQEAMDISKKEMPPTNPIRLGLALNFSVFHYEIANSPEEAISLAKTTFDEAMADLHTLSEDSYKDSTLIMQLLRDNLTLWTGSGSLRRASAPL
Assay: SEC; fluorescence-assisted size-exclusion spectrochromatography, Superdex 200 Increase 5/150, SEC buffer; detection at 230 nm absorbance and Trp fluorescence (excitation 298 nm, emission 360 nm); proteins alone and mixed; both purified

B1: HSPB6 ACD (α-crystallin domain, residues 72-149) (domain or fragment, human, UniProt O14558 72-149, looked up)
chain: GHFSVLLDVKHFSPEEIAVKVVGEHVEVHARHEERPDEHGFVAREFHRRYRLPPGVDPAAVTSALSPEGVLSIQAAPA
notes: human small heat shock protein HSPB6, α-crystallin domain, residues 72-149; also called ACD dimer; isolated ACD
In the case of B1, the binding is reported as “no binding (tested: very high micromolar concentrations)”.
